Measured values published in PubChem BioAssay AID328 (DTP/NCI, 2004).
The list does not hold the whole screen: it is rich in T/C values a quarter to a half above the control, in often repeated tests (any T/C) and in doses without a T/C. Further doses and runs are listed elsewhere. T/C gives the treated animals as a percentage of the vehicle group. Some entries give survivors of the animals treated and no T/C: the source files T/C as zero there, which appears to mark a toxic dose or a test without result, not a measured value. Some survivor counts are full or nearly so, which does not show that the dose was tolerated: survival well below the control is almost never listed, so the zero probably covers shortened survival too. Survivors were counted at the toxicity check, usually on the fifth day, unless a day is given; later deaths do not show. Schedule codes are those of the source, taken here to give the interval after Q, in days (D) or hours (H), and the number of doses after X. Where survival is the endpoint, this PubChem deposit counts one and a half times the control or more as active, and values a quarter to a half above the control carry no call in these data; other NCI protocols may use other cut-offs. Some entries hold several experiments; the results are listed from low to high.

System: BDF1 mice, P388 leukemia ip, median survival T/C
Assay: NCI In Vivo Anticancer Drug Screen. Data for tumor model P388 Leukemia (intraperitoneal) in B6D2F1 (BDF1) mice
Details: T/C endpoint: median survival time, higher T/C = longer survival
In short: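 Each value expresses how treatment altered survival: treated-mouse outcome over vehicle-mouse outcome, both groups bearing the transplanted tumour.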

[1] = dose: 50.0 mg/kg/injection, schedule: Q01DX009 (ip), vehicle: saline
[2] = dose: 100.0 mg/kg/injection, schedule: Q01DX009 (ip), vehicle: saline
[3] = dose: 200.0 mg/kg/injection, schedule: Q01DX009 (ip), vehicle: saline
[4] = dose: 200.0 mg/kg/injection, schedule: Q01DX009 (ip), vehicle: saline with Tween-80
[5] = dose: 400.0 mg/kg/injection, schedule: Q01DX009 (ip), vehicle: saline with Tween-80
[6] = dose: 100.0 mg/kg/injection, schedule: Q01DX009 (ip), vehicle: saline with Tween-80
[7] = dose: 50.0 mg/kg/injection, schedule: Q01DX009 (ip), vehicle: saline with Tween-80

C[n+]1c(-c2ccccc2)c2ccccc2c2ccccc21
survivor count (dose: 6.0 mg/kg/injection, schedule: Q01DX009 (ip), vehicle: water): 3 of 6
survivor count (dose: 12.0 mg/kg/injection, schedule: Q04DX003 (ip), vehicle: water): 1 of 6

NCC[Se]CC(N)C(=O)O (stereo not drawn)
survivor count [1]: 5 of 6
survivor count [2]: 0 of 6
survivor count [3]: 0 of 6

COC1C(O)C(C)OC(OC2C(Oc3cccc4c(O)c5c(=O)oc6ccc(C)c7c(=O)oc(c34)c5c67)OC(C)C(O)C2O)C1O (stereo not drawn)
T/C (dose: 0.78 mg/kg/injection, schedule: Q01DX009 (ip), vehicle: other): 130 % of control
T/C (dose: 1.56 mg/kg/injection, schedule: Q01DX009 (ip), vehicle: Klucel (hydroxypropylcellulose) (HPC)): 148 % of control
T/C (dose: 1.56 mg/kg/injection, schedule: Q01DX009 (ip), vehicle: other): 145 % of control
T/C (dose: 3.12 mg/kg/injection, schedule: Q01DX009 (ip), vehicle: other): 128 % of control
T/C (dose: 6.25 mg/kg/injection, schedule: Q01DX009 (ip), vehicle: other): 139 and 141 % of control
survivor count (dose: 200.0 mg/kg/injection, schedule: Q01DX009 (ip), vehicle: Klucel (hydroxypropylcellulose) (HPC)): 0 of 6
survivor count [4]: 1 of 3
survivor count [5]: 0 of 3

O=C1/C(=C\c2ccccc2)C(Br)c2ccccc21 (stereo not drawn)
survivor count (dose: 50.0 mg/kg/injection, schedule: Q01DX009 (ip), vehicle: water): 3 of 6

Cc1c[n+]([O-])ccc1[N+](=O)[O-]
survivor count [2]: 3 of 6
survivor count (dose: 400.0 mg/kg/injection, schedule: Q04DX003 (ip), vehicle: saline): 0 of 6

CC(=O)/C=C/c1ccccc1
T/C [5]: 143 % of control
survivor count (dose: 600.0 mg/kg/injection, schedule: Q01DX009 (ip), vehicle: saline with Tween-80): 0 of 6

C[C@]12CC[C@@H]3c4ccc(OC5CCCCO5)cc4CC[C@H]3[C@@H]1CC[C@@H]2O (stereo partly drawn)
survivor count (dose: 400.0 mg/kg/injection, schedule: Q01DX009 (ip), vehicle: saline): 6 of 6

CC(=O)OCC(=O)[C@@]12OC(C)(C)O[C@@H]1C[C@H]1[C@@H]3CC(C=O)=C4C=C(OCCCl)CC[C@]4(C)[C@@]3(F)[C@@H](O)C[C@@]12C
survivor count (dose: 6.25 mg/kg/injection, schedule: Q01DX009 (ip), vehicle: Klucel (hydroxypropylcellulose) (HPC)): 6 of 6
survivor count (dose: 12.5 mg/kg/injection, schedule: Q01DX009 (ip), vehicle: Klucel (hydroxypropylcellulose) (HPC)): 6 of 6
T/C (dose: 21.0 mg/kg/injection, schedule: Q04DX003 (ip), vehicle: Klucel (hydroxypropylcellulose) (HPC)): 125 % of control
survivor count (dose: 25.0 mg/kg/injection, schedule: Q01DX009 (ip), vehicle: Klucel (hydroxypropylcellulose) (HPC)): 6 of 6
survivor count (dose: 50.0 mg/kg/injection, schedule: Q01DX009 (ip), vehicle: Klucel (hydroxypropylcellulose) (HPC)): 5 of 6
survivor count (dose: 100.0 mg/kg/injection, schedule: Q01DX009 (ip), vehicle: Klucel (hydroxypropylcellulose) (HPC)): 6 of 6
T/C (dose: 160.0 mg/kg/injection, schedule: Q04DX003 (ip), vehicle: Klucel (hydroxypropylcellulose) (HPC)): 130 % of control
T/C (dose: 240.0 mg/kg/injection, schedule: Q04DX003 (ip), vehicle: Klucel (hydroxypropylcellulose) (HPC)): 135 % of control

Cc1ncc(-c2ccc([N+](=O)[O-])cc2)o1
survivor count (dose: 50.0 mg/kg/injection, schedule: Q04DX003 (ip), vehicle: Klucel (hydroxypropylcellulose) (HPC)): 5 of 5
survivor count (dose: 100.0 mg/kg/injection, schedule: Q04DX003 (ip), vehicle: Klucel (hydroxypropylcellulose) (HPC)): 6 of 6

CN(C)/N=N/c1nc(Cc2ccccc2)[nH]c1C(N)=O
T/C [6]: 142 % of control
T/C [4]: 146 % of control
T/C [5]: 145 % of control

C=CCOc1ccccc1OC
survivor count [5]: 0 of 6
survivor count (dose: 400.0 mg/kg/injection, schedule: Q04DX003 (ip), vehicle: saline with Tween-80): 6 of 6

CC1(c2cccs2)NC(=O)NC1=O (stereo not drawn)
T/C [5]: 129 % of control

COc1cccn(C/C=C(\C)CCC=C(C)C)c1=O
survivor count [6]: 6 of 6
survivor count (dose: 120.0 mg/kg/injection, schedule: Q01DX009 (ip), vehicle: saline with Tween-80): 3 of 6
survivor count (dose: 160.0 mg/kg/injection, schedule: Q01DX009 (ip), vehicle: saline with Tween-80): 0 of 6
survivor count (dose: 200.0 mg/kg/injection, schedule: Q04DX003 (ip), vehicle: saline with Tween-80): 3 of 6

COc1cccc2c1C(=O)c1c(O)c3c(c(O)c1C2=O)C[C@@](O)(C(C)=O)C[C@@H]3OC1CC(NC=O)C(O)C(C)O1 (stereo partly drawn)
T/C (dose: 1.0 mg/kg/injection, schedule: Q01DX009 (ip), vehicle: water): 145 % of control
T/C (dose: 2.0 mg/kg/injection, schedule: Q01DX009 (ip), vehicle: water): 137 % of control
T/C (dose: 4.0 mg/kg/injection, schedule: Q01DX009 (ip), vehicle: water): 135 % of control

CC(=O)OCC1OC(=O)C(C)N(C)C(=O)CN(C)C(=O)C2C(=O)CC(C)N2C(=O)C(C(C)C)NC(=O)C1NC(=O)c1c2nc3c(C(=O)NC4C(=O)NC(C(C)C)C(=O)N5C(C)CC(OC(C)=O)C5C(=O)N(C)CC(=O)N(C)C(C(C)C)C(=O)OC4C)ccc(C)c3oc-2c(C)c(=O)c1N (stereo not drawn)
T/C (dose: 0.15 mg/kg/injection, schedule: Q04DX003 (ip), vehicle: saline with Tween-80): 139 % of control
T/C (dose: 0.3 mg/kg/injection, schedule: Q04DX003 (ip), vehicle: saline with Tween-80): 138 % of control
survivor count (dose: 6.4 mg/kg/injection, schedule: Q01DX001 (ip), vehicle: saline with Tween-80): 4 of 8

CC1=NNC(=O)/C1=C\c1ccc(N(C)C)cc1
survivor count [7]: 7 of 7

Cc1ccc(CC2NC(=O)NC2=O)cc1 (stereo not drawn)
T/C (dose: 25.0 mg/kg/injection, schedule: Q01DX009 (ip), vehicle: saline with Tween-80): 126 % of control
survivor count [7]: 6 of 6

O=C1CN(Cc2ccccc2)CC(=O)N2Cc3ccccc3CN12
survivor count (dose: 50.0 mg/kg/injection, schedule: Q01DX005 (ip), vehicle: saline with Tween-80): 5 of 5

C#C[C@]1(O)CC[C@H]2[C@@H]3CCc4cc(O)ccc4[C@H]3CC[C@@]21C
survivor count (dose: 400.0 mg/kg/injection, schedule: Q01DX009 (ip), vehicle: Klucel (hydroxypropylcellulose) (HPC)): 5 of 6

ClCC(Br)CBr (stereo not drawn) (tested in a mixture with another compound)
survivor count [1]: 0 of 6
survivor count [2]: 0 of 6
survivor count [3]: 0 of 6

FC(F)(F)c1nc[nH]c1C(F)(F)F
survivor count (dose: 100.0 mg/kg/injection, schedule: Q01DX009 (ip), vehicle: water): 0 of 6
survivor count (dose: 200.0 mg/kg/injection, schedule: Q01DX009 (ip), vehicle: water): 0 of 6
survivor count (dose: 200.0 mg/kg/injection, schedule: Q04DX003 (ip), vehicle: water): 1 of 6
survivor count (dose: 400.0 mg/kg/injection, schedule: Q04DX003 (ip), vehicle: water): 0 of 6

Nc1c(C(=O)O)[nH]c(=O)[nH]c1=O
survivor count [4]: 6 of 6

Cc1ccc(S(=O)(=O)N/N=C/c2ccccc2)cc1
T/C (dose: 200.0 mg/kg/injection, schedule: Q04DX003 (ip), vehicle: Klucel (hydroxypropylcellulose) (HPC)): 141 % of control

CCC(=O)c1cc(O)ccc1O
survivor count (dose: 200.0 mg/kg/injection, schedule: Q01DX009 (ip), vehicle: other): 4 of 6

CNC(=O)c1nc(C)c(C)nc1OCc1ccccc1
T/C [3]: 129 % of control

COc1cc2c3c(c4ccc(O)cc4c2cc1OC)[C@@H](O)[C@@H]1CCCN1C3
T/C (dose: 10.0 mg/kg/injection, schedule: Q01DX009 (ip), vehicle: water): 130 % of control
T/C (dose: 15.0 mg/kg/injection, schedule: Q01DX009 (ip), vehicle: water): 138 % of control
T/C (dose: 20.0 mg/kg/injection, schedule: Q01DX009 (ip), vehicle: water): 146 % of control
survivor count (dose: 20.0 mg/kg/injection, schedule: Q01DX010 (ip), vehicle: water): 5 of 6
survivor count (dose: 25.0 mg/kg/injection, schedule: Q01DX010 (ip), vehicle: water): 5 of 6
survivor count (dose: 30.0 mg/kg/injection, schedule: Q01DX010 (ip), vehicle: water): 5 of 6
survivor count (dose: 35.0 mg/kg/injection, schedule: Q01DX010 (ip), vehicle: water): 3 of 6
